These are yes or no findings as the source states them, for the method shown. In cells and extracts the contact can be indirect. Some binding calls cover weakened binding; strength is not graded here.
Biological target: human Hb α (endogenous, vascular cell co-culture of human coronary ECs and SMCs) (human) (UniProt P69905)
Assay: co-immunoprecipitation (IP Hb α, blot CytB5R3) from VCCC lysates

Chains of the proteins cited; added tags and fusions are not shown. Residues count along the entry.
UniProt P69905, residues 2-142: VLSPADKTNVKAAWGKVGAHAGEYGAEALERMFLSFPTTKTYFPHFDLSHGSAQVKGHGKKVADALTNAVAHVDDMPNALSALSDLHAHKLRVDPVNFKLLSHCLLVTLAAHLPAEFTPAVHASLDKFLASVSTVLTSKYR

- binding: binds
B1: human CytB5R3 (endogenous, vascular cell co-culture and human coronary ECs) (enzyme, UniProt P00387 2-301, looked up)
chain: GAQLSTLGHMVLFPVWFLYSLLMKLFQRSTPAITLESPDIKYPLRLIDREIISHDTRRFRFALPSPQHILGLPVGQHIYLSARIDGNLVVRPYTPISSDDDKGFVDLVIKVYFKDTHPKFPAGGKMSQYLESMQIGDTIEFRGPSGLLVYQGKGKFAIRPDKKSNPIIRTVKSVGMIAGGTGITPMLQVIRAIMKDPDDHTVCHLLFANQTEKDILLRPELEELRNKHSARFKLWYTLDRAPEAWDYGQGFVNEEMIRDHLPPPEEEPLVLMCGPPPMIQYACLPNLDHVGHPTERCFVF

Source: patent US20180022779A1
